Measurements reported in publication PMC9523645.
No constants are given. Whether binding was seen depends on the method and setting. In cells and extracts the contact can be indirect. A yes stands for co-enrichment or nearness to the bait. Other partners may have been found.

Amino acid sequences for entries named in this document (tags omitted).
UniProt Q14186: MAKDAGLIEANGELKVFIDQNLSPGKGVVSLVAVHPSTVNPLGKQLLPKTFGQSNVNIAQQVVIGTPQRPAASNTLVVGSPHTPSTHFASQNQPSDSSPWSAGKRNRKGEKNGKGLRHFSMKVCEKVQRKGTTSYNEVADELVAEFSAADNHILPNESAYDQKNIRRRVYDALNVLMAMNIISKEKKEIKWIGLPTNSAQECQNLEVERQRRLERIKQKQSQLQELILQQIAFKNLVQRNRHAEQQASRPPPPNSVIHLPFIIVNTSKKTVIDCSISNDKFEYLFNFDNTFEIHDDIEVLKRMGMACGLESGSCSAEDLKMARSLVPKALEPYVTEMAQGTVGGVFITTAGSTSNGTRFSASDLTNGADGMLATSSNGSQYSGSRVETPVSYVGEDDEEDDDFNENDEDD
UniProt Q8IWI9: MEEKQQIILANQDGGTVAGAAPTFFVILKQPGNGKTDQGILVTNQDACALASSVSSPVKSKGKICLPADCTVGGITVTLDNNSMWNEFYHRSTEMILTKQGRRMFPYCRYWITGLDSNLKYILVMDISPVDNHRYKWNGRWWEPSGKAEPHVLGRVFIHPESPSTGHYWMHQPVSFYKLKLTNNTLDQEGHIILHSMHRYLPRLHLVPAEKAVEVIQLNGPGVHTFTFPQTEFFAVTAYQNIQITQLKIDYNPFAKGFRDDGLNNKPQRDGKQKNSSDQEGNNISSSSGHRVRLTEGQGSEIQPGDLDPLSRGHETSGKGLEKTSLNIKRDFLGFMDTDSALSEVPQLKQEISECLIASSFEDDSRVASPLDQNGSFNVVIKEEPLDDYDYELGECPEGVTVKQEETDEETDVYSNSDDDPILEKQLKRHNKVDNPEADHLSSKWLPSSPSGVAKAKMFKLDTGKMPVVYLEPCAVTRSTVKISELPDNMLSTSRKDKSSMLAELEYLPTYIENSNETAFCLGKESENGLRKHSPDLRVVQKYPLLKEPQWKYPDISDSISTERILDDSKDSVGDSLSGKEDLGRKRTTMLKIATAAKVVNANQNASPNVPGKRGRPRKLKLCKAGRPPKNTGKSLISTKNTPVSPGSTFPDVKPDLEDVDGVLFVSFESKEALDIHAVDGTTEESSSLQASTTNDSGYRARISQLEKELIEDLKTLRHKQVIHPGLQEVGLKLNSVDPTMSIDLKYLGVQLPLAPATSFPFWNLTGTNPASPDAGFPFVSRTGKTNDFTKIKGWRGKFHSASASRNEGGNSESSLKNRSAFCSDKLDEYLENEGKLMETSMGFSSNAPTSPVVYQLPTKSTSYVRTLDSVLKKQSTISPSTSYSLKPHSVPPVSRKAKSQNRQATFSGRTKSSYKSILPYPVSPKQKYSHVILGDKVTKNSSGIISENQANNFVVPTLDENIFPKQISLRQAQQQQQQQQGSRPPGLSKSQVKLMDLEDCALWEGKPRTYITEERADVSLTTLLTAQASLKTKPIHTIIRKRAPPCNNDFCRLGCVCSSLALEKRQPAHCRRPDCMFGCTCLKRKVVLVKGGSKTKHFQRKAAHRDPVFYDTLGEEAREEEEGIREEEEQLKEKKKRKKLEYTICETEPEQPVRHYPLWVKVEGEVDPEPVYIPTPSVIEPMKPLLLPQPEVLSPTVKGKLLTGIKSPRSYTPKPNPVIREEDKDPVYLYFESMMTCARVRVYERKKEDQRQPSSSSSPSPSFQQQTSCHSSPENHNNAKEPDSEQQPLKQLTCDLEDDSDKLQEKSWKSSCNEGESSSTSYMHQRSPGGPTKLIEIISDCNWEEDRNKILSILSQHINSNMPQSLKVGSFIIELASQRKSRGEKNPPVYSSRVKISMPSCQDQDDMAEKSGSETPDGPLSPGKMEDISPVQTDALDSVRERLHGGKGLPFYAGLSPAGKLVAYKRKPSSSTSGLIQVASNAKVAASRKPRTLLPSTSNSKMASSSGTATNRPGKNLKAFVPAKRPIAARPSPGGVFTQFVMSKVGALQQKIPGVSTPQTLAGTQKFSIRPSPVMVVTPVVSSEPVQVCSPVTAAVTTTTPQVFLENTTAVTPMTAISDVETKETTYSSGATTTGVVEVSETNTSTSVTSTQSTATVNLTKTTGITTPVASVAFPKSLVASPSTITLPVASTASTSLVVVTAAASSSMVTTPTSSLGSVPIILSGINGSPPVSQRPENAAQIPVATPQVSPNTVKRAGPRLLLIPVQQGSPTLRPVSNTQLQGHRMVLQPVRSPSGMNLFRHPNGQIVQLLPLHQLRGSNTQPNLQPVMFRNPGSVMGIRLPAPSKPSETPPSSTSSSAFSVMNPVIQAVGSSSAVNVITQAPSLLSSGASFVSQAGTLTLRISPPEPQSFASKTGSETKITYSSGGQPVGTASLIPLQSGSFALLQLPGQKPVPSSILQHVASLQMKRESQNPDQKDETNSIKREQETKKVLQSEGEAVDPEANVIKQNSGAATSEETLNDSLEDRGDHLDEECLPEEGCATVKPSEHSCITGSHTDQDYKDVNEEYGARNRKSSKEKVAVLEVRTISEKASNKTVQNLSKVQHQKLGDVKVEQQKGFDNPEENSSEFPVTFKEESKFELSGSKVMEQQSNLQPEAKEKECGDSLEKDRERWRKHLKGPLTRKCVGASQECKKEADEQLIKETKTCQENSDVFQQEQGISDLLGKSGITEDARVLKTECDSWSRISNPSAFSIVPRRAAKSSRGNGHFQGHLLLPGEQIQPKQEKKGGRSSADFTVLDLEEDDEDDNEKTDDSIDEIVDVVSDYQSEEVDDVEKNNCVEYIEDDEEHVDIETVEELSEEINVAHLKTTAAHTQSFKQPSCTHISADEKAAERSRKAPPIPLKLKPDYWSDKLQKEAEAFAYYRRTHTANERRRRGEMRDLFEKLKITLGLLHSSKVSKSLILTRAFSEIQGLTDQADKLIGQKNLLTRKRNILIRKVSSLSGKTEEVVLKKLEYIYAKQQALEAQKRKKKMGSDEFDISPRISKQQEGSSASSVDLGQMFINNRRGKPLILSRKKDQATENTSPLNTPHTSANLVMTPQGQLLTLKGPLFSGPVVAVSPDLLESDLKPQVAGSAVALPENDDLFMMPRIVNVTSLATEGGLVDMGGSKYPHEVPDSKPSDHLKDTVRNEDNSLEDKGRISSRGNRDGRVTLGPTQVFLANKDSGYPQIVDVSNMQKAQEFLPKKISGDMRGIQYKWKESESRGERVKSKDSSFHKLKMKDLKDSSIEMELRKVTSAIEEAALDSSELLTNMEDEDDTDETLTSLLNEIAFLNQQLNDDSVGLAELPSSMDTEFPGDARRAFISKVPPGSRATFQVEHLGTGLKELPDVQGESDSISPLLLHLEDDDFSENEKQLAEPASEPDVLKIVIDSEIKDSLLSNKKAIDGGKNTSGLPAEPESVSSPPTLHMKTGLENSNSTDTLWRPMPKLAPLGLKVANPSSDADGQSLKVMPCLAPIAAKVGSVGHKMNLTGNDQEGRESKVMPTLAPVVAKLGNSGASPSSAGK

B1: PCGF6 (Polycomb group RING finger protein 6) (protein, UniProt Q9BYE7 1-350)
chain: MEGVAVVTAGSVGAAKTEGAAALPPPPPVSPPALTPAPAAGEEGPAPLSETGAPGCSGSRPPELEPERSLGRFRGRFEDEDEELEEEEELEEEEEEEEEDMSHFSLRLEGGRQDSEDEEERLINLSELTPYILCSICKGYLIDATTITECLHTFCKSCIVRHFYYSNRCPKCNIVVHQTQPLYNIRLDRQLQDIVYKLVINLEEREKKQMHDFYKERGLEVPKPAVPQPVPSSKGRSKKVLESVFRIPPELDMSLLLEFIGANEGTGHFKPLEKKFVRVSGEATIGHVEKFLRRKMGLDPACQVDIICGDHLLEQYQTLREIRRAIGDAAMQDGLLVLHYGLVVSPLKIT

Biological target: SARS-CoV-2 Nsp6 with C-terminal mCherry (mCh)-FLAG (SARS-CoV-2) (UniProt P0DTD1)
Experiment: affinity purification with mass spectrometry

| Molecule | binding |
| --- | --- |
| TFDP1 (Transcription factor Dp-1) (from UniProt Q14186 1-410) | binds |
| MGA (MAX gene-associated protein) (from UniProt Q8IWI9 1-3065) | binds |
| B1 | binds |
